This is one part of the list. Single values are uncertain, as repeats are few or missing.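 Cells were imaged in 1,536-well plates, and nuclei stained with an antibody against cleaved PARP were counted against all DNA-stained nuclei to give the apoptosis fraction. Screening doses were chosen to leave most cells alive, and resting and induced cleaved-PARP levels differ strongly between cell lines.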
Columns and labels:
Assay in all cases: cleaved PARP positive nuclei fraction relative to DMSO control; melanoma cells; higher = more apoptosis
Details in all cases: library dose: low library concentration; 72 h
501Mel = tested on: 501Mel
A101D = tested on: A101D
A2058 = tested on: A2058
A375 = tested on: A375
C32 = tested on: C32
CBRC013 = tested on: CBRC013 (line from a melanoma biopsy)
CBRC014 = tested on: CBRC014 (line from a melanoma biopsy)
CBRC016 = tested on: CBRC016 (line from a melanoma biopsy)
CBRC017 = tested on: CBRC017 (line from a melanoma biopsy)
CBRC008 = tested on: CBRC008 (line from a melanoma biopsy)

SMILES | cleaved PARP positive nuclei fraction (501Mel) [%] | cleaved PARP positive nuclei fraction (A101D) [%] | cleaved PARP positive nuclei fraction (A2058) [%] | cleaved PARP positive nuclei fraction (A375) [%] | cleaved PARP positive nuclei fraction (C32) [%] | cleaved PARP positive nuclei fraction (CBRC013) [%] | cleaved PARP positive nuclei fraction (CBRC014) [%] | cleaved PARP positive nuclei fraction (CBRC016) [%] | cleaved PARP positive nuclei fraction (CBRC017) [%] | cleaved PARP positive nuclei fraction (CBRC008) [%]
Nc1cccc2c1CN(C1CCC(=O)NC1=O)C2=O (centres undefined) [lenalidomide] + Oc1cc(-c2nc(-c3ccccc3)[nH]c2-c2ccncc2)ccc1Cl [L779450] (first compound 1 µM, partner dose 0.2 µM) | 91.4 | 120 | 181 | 65.1 | 56.9 | 153 | 95.5 | 74.7 | 101 | –
Nc1cccc2c1CN(C1CCC(=O)NC1=O)C2=O (centres undefined) [lenalidomide] + O=C1NC(=O)/C(=C/c2ccc(-c3ccc(F)cc3O)o2)S1 [AS252424] (first compound 1 µM, partner dose 1 µM) | 129 | 51.2 | 58.2 | 55.1 | 40.1 | 108 | 90.1 | 71.6 | 76.8 | –
OCCn1cc(-c2cnc3nnn(Cc4ccc5ncccc5c4)c3n2)cn1 + Oc1nc(-c2ccc(C(F)(F)F)cc2)nc2c1CSCC2 [XAV939] (first compound 1 µM, partner dose 2 µM) | 70.9 | 107 | 130 | 66.7 | 120 | 57.1 | 94.1 | 80.5 | 69.1 | –
O=C(Nc1cccc(Cl)c1)Nc1ncc(CCNc2ncnc3ccsc23)s1 + CC(C)CCN1c2nc(Nc3cc(F)c(O)c(F)c3)ncc2N(C)C(=O)C1C [BID1870] (first compound 0.0008 µM, partner dose 0.2 µM) | 71.9 | 141 | 86.1 | 144 | 156 | 52.7 | 125 | 134 | 92.3 | –
C=CCNC1=C2C[C@@H](C)C[C@H](OC)[C@H](O)[C@@H](C)/C=C(\C)[C@H](OC(N)=O)[C@@H](OC)/C=C\C=C(/C)C(=O)NC(=CC1=O)C2=O [Tanespimycin] + CCN(CC)CCCCNc1ncc2cc(-c3cc(OC)cc(OC)c3)c(NC(=O)NC(C)(C)C)nc2n1 [PD173074] (first compound 0.002 µM, partner dose 0.1 µM) | 65.4 | 23.8 | 87.1 | – | 51.6 | – | 102 | 72.5 | 66 | 34.1
Clc1ccc(Nc2nnc(Cc3ccncc3)c3ccccc23)cc1 [vatalanib] + CC(C)CCN1c2nc(Nc3cc(F)c(O)c(F)c3)ncc2N(C)C(=O)C1C [BID1870] (first compound 2 µM, partner dose 0.2 µM) | 155 | 143 | 78.4 | – | 151 | – | 110 | 147 | 91 | 56.8
CC(=O)c1c(C)c2cnc(Nc3ccc(N4CCNCC4)cn3)nc2n(C2CCCC2)c1=O [palbociclib] + Cc1cc([N+](=O)[O-])ccc1NS(=O)(=O)c1cc(Cl)ccc1Cl [FH535] (first compound 0.04 µM, partner dose 1 µM) | 223 | 34.4 | 105 | – | 54.8 | – | 303 | 652 | 355 | 245
CC(=O)c1c(C)c2cnc(Nc3ccc(N4CCNCC4)cn3)nc2n(C2CCCC2)c1=O [palbociclib] + O=C(Nc1ccccc1)c1cc([N+](=O)[O-])ccc1Cl [GW9662] (first compound 0.04 µM, partner dose 2 µM) | 123 | 24.1 | 87.2 | – | 110 | – | 105 | 47.1 | 63.8 | 67.1
Clc1ccc(Nc2nnc(Cc3ccncc3)c3ccccc23)cc1 [vatalanib] + N#Cc1c(O)c2c(-c3ccc(-c4ccccc4O)cc3)csc2[nH]c1=O [A769662] (first compound 2 µM, partner dose 2 µM) | 126 | 25.2 | 136 | – | 80.1 | – | 108 | 60.9 | 86.4 | 95.4
C=CCNC1=C2C[C@@H](C)C[C@H](OC)[C@H](O)[C@@H](C)/C=C(\C)[C@H](OC(N)=O)[C@@H](OC)/C=C\C=C(/C)C(=O)NC(=CC1=O)C2=O [Tanespimycin] + O=C(O)C(=O)Nc1sc2c(c1C(=O)O)CCNC2 [TCS401] (first compound 0.002 µM, partner dose 1.66667 µM) | 149 | 46.5 | 301 | – | 85.7 | – | 101 | 245 | 98.8 | 356
CC(=O)c1c(C)c2cnc(Nc3ccc(N4CCNCC4)cn3)nc2n(C2CCCC2)c1=O [palbociclib] + N#Cc1c(O)c2c(-c3ccc(-c4ccccc4O)cc3)csc2[nH]c1=O [A769662] (first compound 0.04 µM, partner dose 2 µM) | 183 | 99.6 | 28.9 | – | 400 | – | 103 | 55 | 67 | 107
CC(=O)c1c(C)c2cnc(Nc3ccc(N4CCNCC4)cn3)nc2n(C2CCCC2)c1=O [palbociclib] + COc1cc(N2CCC(N3CCN(C)CC3)CC2)ccc1Nc1ncc(Cl)c(Nc2ccccc2S(=O)(=O)C(C)C)n1 [NVP-TAE684] (first compound 0.04 µM, partner dose 0.08 µM) | 212 | 36.2 | 66.9 | – | 147 | – | 223 | 2320 | 117 | 73.1
CC(=O)c1c(C)c2cnc(Nc3ccc(N4CCNCC4)cn3)nc2n(C2CCCC2)c1=O [palbociclib] + CCN(CC)CCCCNc1ncc2cc(-c3cc(OC)cc(OC)c3)c(NC(=O)NC(C)(C)C)nc2n1 [PD173074] (first compound 0.04 µM, partner dose 0.1 µM) | 111 | 25 | 78.1 | – | 202 | – | 110 | 152 | 210 | 153
CC(=O)c1c(C)c2cnc(Nc3ccc(N4CCNCC4)cn3)nc2n(C2CCCC2)c1=O [palbociclib] + COc1cc2ncnc(Nc3ccc(Oc4ccccc4)cc3)c2cc1OC [SrcI1] (first compound 0.04 µM, partner dose 2 µM) | 135 | 38.1 | 95.8 | – | 50.1 | – | 107 | 55.2 | 87 | 56
Clc1ccc(Nc2nnc(Cc3ccncc3)c3ccccc23)cc1 [vatalanib] + O=C(O)C(=O)Nc1sc2c(c1C(=O)O)CCNC2 [TCS401] (first compound 2 µM, partner dose 1.66667 µM) | 95.1 | 36.8 | 224 | – | 119 | – | 92.6 | 73.9 | 81.9 | 81.6
Clc1ccc(Nc2nnc(Cc3ccncc3)c3ccccc23)cc1 [vatalanib] + O=c1cc(-c2cccc3c2Sc2ccccc2S3)oc(N2CCOCC2)c1 [KU55933] (first compound 2 µM, partner dose 1 µM) | 80.7 | 51.4 | 241 | – | 141 | – | 107 | 103 | 125 | 139
CC(=O)c1c(C)c2cnc(Nc3ccc(N4CCNCC4)cn3)nc2n(C2CCCC2)c1=O [palbociclib] + Oc1nc(-c2ccc(C(F)(F)F)cc2)nc2c1CSCC2 [XAV939] (first compound 0.04 µM, partner dose 2 µM) | 185 | 41.3 | 40.7 | – | 100 | – | 115 | 103 | 90.2 | 230
Clc1ccc(Nc2nnc(Cc3ccncc3)c3ccccc23)cc1 [vatalanib] + CCN(CC)CCCCNc1ncc2cc(-c3cc(OC)cc(OC)c3)c(NC(=O)NC(C)(C)C)nc2n1 [PD173074] (first compound 2 µM, partner dose 0.1 µM) | 104 | 306 | 144 | – | 45.1 | – | 126 | 99.2 | 47.7 | 130
CC(=O)c1c(C)c2cnc(Nc3ccc(N4CCNCC4)cn3)nc2n(C2CCCC2)c1=O [palbociclib] + CC(C)CCN1c2nc(Nc3cc(F)c(O)c(F)c3)ncc2N(C)C(=O)C1C [BID1870] (first compound 0.04 µM, partner dose 0.2 µM) | 103 | 12.9 | 91.8 | – | 154 | – | 247 | 56.2 | 81.1 | 565
Clc1ccc(Nc2nnc(Cc3ccncc3)c3ccccc23)cc1 [vatalanib] + COc1cc2ncnc(Nc3ccc(Oc4ccccc4)cc3)c2cc1OC [SrcI1] (first compound 2 µM, partner dose 2 µM) | 88.6 | 155 | 15.2 | – | 83.4 | – | 96.8 | 49.1 | 107 | 60.7
Clc1ccc(Nc2nnc(Cc3ccncc3)c3ccccc23)cc1 [vatalanib] + COC(=O)c1sccc1S(=O)(=O)Nc1ccc(Nc2ccccc2)cc1OC [GSK0660] (first compound 2 µM, partner dose 1 µM) | 58.1 | 9.12 | 23.5 | – | 59.8 | – | 110 | 91.9 | 78.8 | 177
OCc1c[nH]c2ccccc12 [Indole-3-carbinol] + CCc1ccc(CCOc2ccc(CC3SC(=O)NC3=O)cc2)nc1 [pioglitazone] (first compound 0.8 µM, partner dose 2 µM) | 81.4 | 41.5 | 127 | – | 280 | – | 99.5 | 181 | 88.9 | 129
CC(=O)c1c(C)c2cnc(Nc3ccc(N4CCNCC4)cn3)nc2n(C2CCCC2)c1=O [palbociclib] + CCc1ccc(CCOc2ccc(CC3SC(=O)NC3=O)cc2)nc1 [pioglitazone] (first compound 0.04 µM, partner dose 2 µM) | 94.4 | 26.4 | 37.1 | – | 51.2 | – | 113 | 41.8 | 117 | 117
CC(=O)c1c(C)c2cnc(Nc3ccc(N4CCNCC4)cn3)nc2n(C2CCCC2)c1=O [palbociclib] + O=C(O)C(=O)Nc1sc2c(c1C(=O)O)CCNC2 [TCS401] (first compound 0.04 µM, partner dose 1.66667 µM) | 113 | 14 | 107 | – | 110 | – | 97.6 | 103 | 92.6 | 55.2
C=CCNC1=C2C[C@@H](C)C[C@H](OC)[C@H](O)[C@@H](C)/C=C(\C)[C@H](OC(N)=O)[C@@H](OC)/C=C\C=C(/C)C(=O)NC(=CC1=O)C2=O [Tanespimycin] + CC(C)CCN1c2nc(Nc3cc(F)c(O)c(F)c3)ncc2N(C)C(=O)C1C [BID1870] (first compound 0.002 µM, partner dose 0.2 µM) | 80.6 | 37.5 | 15.3 | – | 66 | – | 123 | 108 | 80.3 | 166

Six neighbouring entries already listed:
SMILES | cleaved PARP positive nuclei fraction (501Mel) [%] | cleaved PARP positive nuclei fraction (A101D) [%] | cleaved PARP positive nuclei fraction (A2058) [%] | cleaved PARP positive nuclei fraction (A375) [%] | cleaved PARP positive nuclei fraction (C32) [%] | cleaved PARP positive nuclei fraction (CBRC013) [%] | cleaved PARP positive nuclei fraction (CBRC014) [%] | cleaved PARP positive nuclei fraction (CBRC016) [%] | cleaved PARP positive nuclei fraction (CBRC017) [%] | cleaved PARP positive nuclei fraction (CBRC008) [%]
C=CCNC1=C2C[C@@H](C)C[C@H](OC)[C@H](O)[C@@H](C)/C=C(\C)[C@H](OC(N)=O)[C@@H](OC)/C=C\C=C(/C)C(=O)NC(=CC1=O)C2=O [Tanespimycin] + O=C(O)C(=O)Nc1sc2c(c1C(=O)O)CCNC2 [TCS401] (first compound 0.002 µM, partner dose 1.66667 µM) | 149 | 46.5 | 301 | – | 85.7 | – | 101 | 245 | 98.8 | 356
CC(=O)c1c(C)c2cnc(Nc3ccc(N4CCNCC4)cn3)nc2n(C2CCCC2)c1=O [palbociclib] + N#Cc1c(O)c2c(-c3ccc(-c4ccccc4O)cc3)csc2[nH]c1=O [A769662] (first compound 0.04 µM, partner dose 2 µM) | 183 | 99.6 | 28.9 | – | 400 | – | 103 | 55 | 67 | 107
CC(=O)c1c(C)c2cnc(Nc3ccc(N4CCNCC4)cn3)nc2n(C2CCCC2)c1=O [palbociclib] + COc1cc(N2CCC(N3CCN(C)CC3)CC2)ccc1Nc1ncc(Cl)c(Nc2ccccc2S(=O)(=O)C(C)C)n1 [NVP-TAE684] (first compound 0.04 µM, partner dose 0.08 µM) | 212 | 36.2 | 66.9 | – | 147 | – | 223 | 2320 | 117 | 73.1
CC(=O)c1c(C)c2cnc(Nc3ccc(N4CCNCC4)cn3)nc2n(C2CCCC2)c1=O [palbociclib] + CCN(CC)CCCCNc1ncc2cc(-c3cc(OC)cc(OC)c3)c(NC(=O)NC(C)(C)C)nc2n1 [PD173074] (first compound 0.04 µM, partner dose 0.1 µM) | 111 | 25 | 78.1 | – | 202 | – | 110 | 152 | 210 | 153
CC(=O)c1c(C)c2cnc(Nc3ccc(N4CCNCC4)cn3)nc2n(C2CCCC2)c1=O [palbociclib] + COc1cc2ncnc(Nc3ccc(Oc4ccccc4)cc3)c2cc1OC [SrcI1] (first compound 0.04 µM, partner dose 2 µM) | 135 | 38.1 | 95.8 | – | 50.1 | – | 107 | 55.2 | 87 | 56
Clc1ccc(Nc2nnc(Cc3ccncc3)c3ccccc23)cc1 [vatalanib] + O=C(O)C(=O)Nc1sc2c(c1C(=O)O)CCNC2 [TCS401] (first compound 2 µM, partner dose 1.66667 µM) | 95.1 | 36.8 | 224 | – | 119 | – | 92.6 | 73.9 | 81.9 | 81.6

Reference: the supplement of paper PMC4604168 (melanoma cell lines)
